No constants are given. Whether binding was seen depends on the method and setting. Binding seen in cells or lysates may run through a third protein. Some binding calls cover weakened binding; strength is not graded here.
What was measured:
[1] = target: Sec15-GFP (C. albicans); assay: co-IP; C. albicans cell lysates in HEPES lysis buffer (50 mM Hepes pH 7.5, 1 mM EDTA, 5% glycerol, 0.05% Tween 20, 105 mM KCl); antibody-conjugated beads (anti-GFP, anti-Myc or anti-HA), 4 °C for 2 h; western blot
[2] = target: Myo2-Myc (C. albicans) (UniProt Q5AKW2); assay: as above

| Substance | binding [1] | binding [2] |
| --- | --- | --- |
| Myo2-Myc (from UniProt Q5AKW2 1-1561) | binds |  |
| Sec15-GFP (from UniProt A0A1D8PM29 1-892) |  | binds |
